Data on seven substances can be found in article PMC3979106 (Structure(London, England:1993), 2014).

Protein sequences, listed by entry. Tags and fused reporters are not part of them. Lines headed by an entry give the natural chain unless they say otherwise; changes in a name come on top. Chains listed by the source or under a name are the forms on record and can include a tag or linker. Residues count along the entry.
UniProt P61077, residues 2-147: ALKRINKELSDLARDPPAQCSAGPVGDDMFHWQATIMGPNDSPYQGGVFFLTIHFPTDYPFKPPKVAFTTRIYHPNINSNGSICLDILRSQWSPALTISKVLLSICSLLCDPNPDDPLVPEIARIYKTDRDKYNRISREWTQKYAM
UniProt P61086: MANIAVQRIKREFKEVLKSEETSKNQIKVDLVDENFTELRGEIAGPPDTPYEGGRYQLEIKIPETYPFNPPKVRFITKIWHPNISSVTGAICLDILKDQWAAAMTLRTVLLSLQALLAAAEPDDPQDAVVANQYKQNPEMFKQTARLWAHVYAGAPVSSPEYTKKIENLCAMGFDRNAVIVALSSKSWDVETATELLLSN
UniProt P63146: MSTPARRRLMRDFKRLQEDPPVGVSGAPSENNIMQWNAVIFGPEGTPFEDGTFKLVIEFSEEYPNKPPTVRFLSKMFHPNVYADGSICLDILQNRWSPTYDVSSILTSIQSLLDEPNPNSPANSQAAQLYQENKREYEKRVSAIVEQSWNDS
UniProt O14933: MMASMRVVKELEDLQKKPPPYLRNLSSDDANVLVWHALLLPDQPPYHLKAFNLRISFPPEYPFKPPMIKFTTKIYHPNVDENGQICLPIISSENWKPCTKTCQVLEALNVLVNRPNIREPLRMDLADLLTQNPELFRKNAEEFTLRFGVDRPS
UniProt P49427: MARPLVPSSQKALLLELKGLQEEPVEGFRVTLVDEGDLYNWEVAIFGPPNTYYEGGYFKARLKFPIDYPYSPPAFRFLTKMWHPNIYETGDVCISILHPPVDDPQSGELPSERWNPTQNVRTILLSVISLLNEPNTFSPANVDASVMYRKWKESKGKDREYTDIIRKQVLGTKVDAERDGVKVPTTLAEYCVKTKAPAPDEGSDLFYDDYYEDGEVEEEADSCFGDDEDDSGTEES
UniProt P62256: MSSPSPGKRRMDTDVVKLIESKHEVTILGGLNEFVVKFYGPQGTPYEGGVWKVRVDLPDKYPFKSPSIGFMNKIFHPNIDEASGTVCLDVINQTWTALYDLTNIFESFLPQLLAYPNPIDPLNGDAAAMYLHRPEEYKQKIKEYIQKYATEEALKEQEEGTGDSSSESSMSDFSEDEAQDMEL
UniProt Q9NPD8: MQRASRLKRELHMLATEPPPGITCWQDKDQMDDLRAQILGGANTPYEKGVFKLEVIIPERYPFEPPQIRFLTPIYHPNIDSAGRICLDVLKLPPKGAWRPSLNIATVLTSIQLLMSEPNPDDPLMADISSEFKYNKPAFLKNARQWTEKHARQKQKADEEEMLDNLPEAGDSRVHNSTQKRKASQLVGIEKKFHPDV
Human Ube2T Arg60Glu (Q9NPD8, form named): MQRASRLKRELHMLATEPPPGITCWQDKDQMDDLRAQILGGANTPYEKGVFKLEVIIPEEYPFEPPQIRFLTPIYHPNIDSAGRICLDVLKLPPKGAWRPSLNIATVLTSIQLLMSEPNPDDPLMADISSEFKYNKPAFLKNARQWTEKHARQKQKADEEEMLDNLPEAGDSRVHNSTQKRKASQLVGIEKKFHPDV

These are yes or no findings as the source states them, for the method shown.

Test [1] deals with T1, Human FANCL RING domain (residues 289–375) (human) (UniProt Q9NW38).
T1 sequence: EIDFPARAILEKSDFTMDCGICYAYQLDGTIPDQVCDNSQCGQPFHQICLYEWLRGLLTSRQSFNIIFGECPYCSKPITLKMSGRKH
The test can be described thus: SEC; analytical size-exclusion chromatography, Superdex 75 10/300; RING domain and one E2 incubated 1 hr on ice in 0.1 M NaCl, 0.1 M Tris pH 8, 250 μM TCEP; complex read as a peak shift to the left; both purified. (Size exclusion chromatography separates by hydrodynamic size, large species first.)

For test [2], the target named is T1, Human FANCL RING domain (residues 289–375) (human). The test can be described thus: condition: 80–100 μM of E2 with ∼140 μM FANCL RING domain; native gel or EMSA; native gel shift; ∼140 μM FANCL RING domain with 80–100 μM E2, 10 min on ice in 0.1 M NaCl, 0.1 M Tris pH 8, 250 μM TCEP; 4%–12% native PAGE; both purified.
For test [3] the target is unchanged. The test can be described thus: condition: equimolar amounts of Ube2T, Ube2D3 and Ube2L3; SEC; analytical size-exclusion chromatography of FANCL RING domain incubated with an equimolar mix of Ube2T, Ube2D3 and Ube2L3; E2 bands of the shifted peak identified by SDS-PAGE and mass spectrometry; both purified.

Regarding “Human Ube2D3 (UbcH5c) (from UniProt P61077 2-147) (enzyme)”, the binding result in test [1], in test [2] and in test [3] was “no binding” throughout.
In the case of “Human Ube2K (from UniProt P61086 1-200) (enzyme)”, the binding entry in test [1] and in test [2] was “no binding” in each case.
For the substance “Human Ube2B (from UniProt P63146 1-152) (enzyme)”, the binding entry in test [1] and in test [2] was “no binding” in each case.
Regarding “Ube2L6 (from UniProt O14933 1-153) (enzyme)”, the binding result in test [1] and in test [2] was “no binding” each time.
For the substance “Human Ube2R1 (from UniProt P49427 1-236) (enzyme)”, the binding entry in test [1] and in test [2] was “no binding” in each case.
In the case of “Ube2H (from UniProt P62256 1-183) (enzyme)”, the binding result in test [1] and in test [2] was “no binding” in each case.
“Human Ube2T Arg60Glu (from UniProt Q9NPD8 1-197) (enzyme)”: the binding entry in test [1] was “no binding”.
